No constants are given. Whether binding was seen depends on the method and setting. In cells and extracts the contact can be indirect. Some binding calls cover weakened binding; strength is not graded here. Where a sequence is shown, tags or fusion partners need not be part of it.
Tests used:
[1] = biological target: T1, hexahistidine tagged Magmas-1 (human) (UniProt I3L3T0); assay: pull-down; hexahistidine tagged Magmas variants on Ni-NTA beads; lysate of 2 mg HEK293T mitochondria in 25 mM HEPES-KOH pH 7.5, 80 mM KCl, 5 mM EDTA, 20 mM imidazole, 10% glycerol, 1 mM PMSF, 0.5% NP-40; 12 h, 4 °C; washes with 0.25% NP-40; immunoblot; only the target purified
T1 sequence: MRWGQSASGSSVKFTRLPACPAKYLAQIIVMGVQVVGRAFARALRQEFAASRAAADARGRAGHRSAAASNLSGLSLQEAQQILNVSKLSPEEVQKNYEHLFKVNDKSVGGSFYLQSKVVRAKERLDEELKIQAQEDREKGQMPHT

Amino acid sequences for entries named in this document (tags omitted).
UniProt Q96DA6: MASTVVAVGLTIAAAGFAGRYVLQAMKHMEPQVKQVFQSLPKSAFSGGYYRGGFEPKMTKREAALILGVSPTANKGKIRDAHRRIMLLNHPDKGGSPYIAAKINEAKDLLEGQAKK
UniProt O60830: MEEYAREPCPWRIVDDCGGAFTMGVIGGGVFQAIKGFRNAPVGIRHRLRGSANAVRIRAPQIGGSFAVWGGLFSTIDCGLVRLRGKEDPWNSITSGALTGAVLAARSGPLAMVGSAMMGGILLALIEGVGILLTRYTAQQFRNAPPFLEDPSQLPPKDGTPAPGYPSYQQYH
UniProt Q99595: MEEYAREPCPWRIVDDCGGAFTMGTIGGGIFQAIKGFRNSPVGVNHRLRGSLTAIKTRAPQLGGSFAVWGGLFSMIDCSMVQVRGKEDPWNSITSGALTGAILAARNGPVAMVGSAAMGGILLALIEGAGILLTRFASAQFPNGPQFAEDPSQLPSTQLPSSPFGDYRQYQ

[2] = biological target: T2, hexahistidine tagged Magmas (human) (UniProt Q9Y3D7); assay: as above
T2 sequence: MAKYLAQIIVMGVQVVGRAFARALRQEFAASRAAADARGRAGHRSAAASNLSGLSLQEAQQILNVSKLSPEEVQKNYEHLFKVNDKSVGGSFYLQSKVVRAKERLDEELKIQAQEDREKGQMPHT

binding [1]	binding [2]	Substance
binds	binds	DnaJC19 (endogenous) (from UniProt Q96DA6 1-116)
binds	binds	Tim17b (from UniProt O60830 1-172)
binds weakly	binds	Tim17a (from UniProt Q99595 1-171)
